Results reported in doi:10.1101/2021.12.21.473709.
Results are given in words; binding and its absence hold for the method and conditions named. In cells and extracts the contact can be indirect. A result given as binding can be weak or reduced; the word gives no strength. Where a sequence is shown, tags or fusion partners need not be part of it.

Amino acid sequences for entries named in this document (tags omitted). A change or cut given only in a name is not applied to a line headed by its entry.
UniProt Q8L4M1: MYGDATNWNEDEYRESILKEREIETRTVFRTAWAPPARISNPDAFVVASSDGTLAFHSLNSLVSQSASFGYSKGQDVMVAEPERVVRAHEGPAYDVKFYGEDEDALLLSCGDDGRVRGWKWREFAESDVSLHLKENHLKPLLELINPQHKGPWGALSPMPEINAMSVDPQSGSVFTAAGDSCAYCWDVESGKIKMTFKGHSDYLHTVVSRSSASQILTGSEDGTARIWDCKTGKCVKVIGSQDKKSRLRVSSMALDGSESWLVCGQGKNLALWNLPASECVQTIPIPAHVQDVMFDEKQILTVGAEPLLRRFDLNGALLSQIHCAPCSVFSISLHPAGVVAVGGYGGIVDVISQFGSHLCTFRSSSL

Legend:
Test in all cases: split reporter
[1] = molecular target: T1, AFP1, split YFP fusion (Arabidopsis) (UniProt Q9LQ98)
T1 sequence: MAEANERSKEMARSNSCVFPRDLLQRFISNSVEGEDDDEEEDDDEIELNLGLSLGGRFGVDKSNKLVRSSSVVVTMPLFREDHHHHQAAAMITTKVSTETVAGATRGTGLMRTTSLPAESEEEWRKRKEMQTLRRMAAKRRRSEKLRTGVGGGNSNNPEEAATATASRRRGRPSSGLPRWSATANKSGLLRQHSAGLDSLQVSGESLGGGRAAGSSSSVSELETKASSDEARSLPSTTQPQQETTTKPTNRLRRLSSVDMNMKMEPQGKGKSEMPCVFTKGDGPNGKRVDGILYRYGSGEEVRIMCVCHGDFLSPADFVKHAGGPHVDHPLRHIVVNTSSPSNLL

[2] = molecular target: T2, ABI5, split YFP fusion (Arabidopsis) (UniProt Q9SJN0)
T2 sequence: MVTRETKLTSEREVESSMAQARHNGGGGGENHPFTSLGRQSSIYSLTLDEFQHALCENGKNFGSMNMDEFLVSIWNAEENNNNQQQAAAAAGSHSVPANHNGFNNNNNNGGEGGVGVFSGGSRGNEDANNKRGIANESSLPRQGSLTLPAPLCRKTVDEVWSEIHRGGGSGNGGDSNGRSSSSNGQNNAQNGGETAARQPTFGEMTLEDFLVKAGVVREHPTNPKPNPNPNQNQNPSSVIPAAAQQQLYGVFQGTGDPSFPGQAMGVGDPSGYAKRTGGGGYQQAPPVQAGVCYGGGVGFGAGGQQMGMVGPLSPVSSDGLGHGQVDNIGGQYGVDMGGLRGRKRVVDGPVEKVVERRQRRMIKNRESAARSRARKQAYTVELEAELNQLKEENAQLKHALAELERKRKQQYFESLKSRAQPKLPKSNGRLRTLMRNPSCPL

[3] = molecular target: T3, AFP2, split YFP fusion (Arabidopsis) (UniProt Q9LMX5)
T3 sequence: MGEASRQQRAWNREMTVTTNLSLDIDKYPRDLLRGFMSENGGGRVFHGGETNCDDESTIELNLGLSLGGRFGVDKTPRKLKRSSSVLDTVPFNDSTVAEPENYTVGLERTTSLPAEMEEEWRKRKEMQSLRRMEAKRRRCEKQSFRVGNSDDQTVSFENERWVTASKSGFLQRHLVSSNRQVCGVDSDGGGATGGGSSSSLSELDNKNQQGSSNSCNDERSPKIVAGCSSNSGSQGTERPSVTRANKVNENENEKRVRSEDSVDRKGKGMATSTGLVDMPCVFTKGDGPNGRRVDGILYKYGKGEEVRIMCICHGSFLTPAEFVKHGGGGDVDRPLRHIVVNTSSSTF

Measured: binding

DWA1, split YFP fusion (from UniProt Q8L4M1)
binds weakly: all assays above
